# This is one part of the list. Single values are uncertain, as repeats are few or missing.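 Cells were imaged in 1,536-well plates, and nuclei stained with an antibody against cleaved PARP were counted against all DNA-stained nuclei to give the apoptosis fraction. Screening doses were chosen to leave most cells alive, and resting and induced cleaved-PARP levels differ strongly between cell lines.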
# Experiments:
# Assay in all cases: cleaved PARP positive nuclei fraction relative to DMSO control; melanoma cells; higher = more apoptosis
# Settings in all cases: library dose: low library concentration; 72 h
# CBRC034 = test system: CBRC034 (line from a melanoma biopsy)
# COLO792 = test system: COLO792
# COLO800 = test system: COLO800
# COLO829 = test system: COLO829
# G361 = test system: G361
# IPC-298 = test system: IPC-298
# IST-MEL1 = test system: IST-MEL1
# LB2518-MEL = test system: LB2518-MEL
# LOXIMVI = test system: LOXIMVI
# MEL-HO = test system: MEL-HO
SMILES,cleaved PARP positive nuclei fraction (CBRC034) [%],cleaved PARP positive nuclei fraction (COLO792) [%],cleaved PARP positive nuclei fraction (COLO800) [%],cleaved PARP positive nuclei fraction (COLO829) [%],cleaved PARP positive nuclei fraction (G361) [%],cleaved PARP positive nuclei fraction (IPC-298) [%],cleaved PARP positive nuclei fraction (IST-MEL1) [%],cleaved PARP positive nuclei fraction (LB2518-MEL) [%],cleaved PARP positive nuclei fraction (LOXIMVI) [%],cleaved PARP positive nuclei fraction (MEL-HO) [%]
"COc1ccc(C2=N[C@@H](c3ccc(Cl)cc3)[C@@H](c3ccc(Cl)cc3)N2C(=O)N2CCNC(=O)C2)c(OC(C)C)c1 [Nutlin-3] + C[C@]12O[C@H](C[C@]1(O)CO)n1c3ccccc3c3c4c(c5c6ccccc6n2c5c31)CNC4=O [Lestaurtinib] (first compound 0.1 µM, partner dose 0.004 µM)",75.7,93.1,62.2,56.4,62.8,83.6,184,120,186,59.1
"C[C@@H](N)c1ccc(C(=O)Nc2ccnc3[nH]ccc23)cc1 + C[As](C)SC[C@H](NC(=O)CC[C@H](N)C(=O)O)C(=O)NCC(=O)O [Darinaparsin] (first compound 0.4 µM, partner dose 0.4 µM)",175,161,179,99.8,223,209,171,33.9,481,141
"COc1cc([C@@H]2c3cc4c(cc3[C@@H](O[C@@H]3O[C@@H]5CO[C@@H](C)O[C@H]5[C@H](O)[C@H]3O)[C@H]3COC(=O)[C@H]23)OCO4)cc(OC)c1O [etoposide] + Cn1cc(C2=C(c3cn(C4CCN(Cc5ccccn5)CC4)c4ccccc34)C(=O)NC2=O)c2ccccc21 [Enzastaurin] (first compound 0.02 µM, partner dose 0.8 µM)",124,44.5,144,95.1,39.9,43.4,159,46,277,335
"N.N.[Cl][Pt][Cl] [cisplatin] + C=C(c1ccc(C(=O)O)cc1)c1cc2c(cc1C)C(C)(C)CCC2(C)C [Bexarotene] (first compound 1.6 µM, partner dose 2 µM)",71.8,152,65.6,98.2,157,89.9,115,105,42.1,44.4
"Cn1cc(C2=C(c3cn(C4CCN(Cc5ccccn5)CC4)c4ccccc34)C(=O)NC2=O)c2ccccc21 [Enzastaurin] + COCC[n+]1c2c(n(Cc3cnccn3)c1C)C(=O)c1ccccc1C2=O [YM155] (first compound 0.8 µM, partner dose 0.0004 µM)",93.6,98.7,118,25.9,59.6,138,35.3,305,82.5,111
"Cn1cc(C2=C(c3cn(C4CCN(Cc5ccccn5)CC4)c4ccccc34)C(=O)NC2=O)c2ccccc21 [Enzastaurin] + Nc1ncn([C@H]2C[C@H](O)[C@@H](CO)O2)c(=O)n1 [decitabine] (first compound 0.8 µM, partner dose 0.1 µM)",34.5,111,112,57.7,107,82.2,278,60.2,102,82.5
"O=c1[nH]nc(Sc2ncc([N+](=O)[O-])s2)n1-c1ccc2c(c1)OCCO2 + Cn1cc(C2=C(c3cn(C4CCN(Cc5ccccn5)CC4)c4ccccc34)C(=O)NC2=O)c2ccccc21 [Enzastaurin] (first compound 0.2 µM, partner dose 0.8 µM)",215,96.1,34.8,53.6,71.3,81.7,62.8,128,76.7,36
"Cn1cc(C2=C(c3cn(C4CCN(Cc5ccccn5)CC4)c4ccccc34)C(=O)NC2=O)c2ccccc21 [Enzastaurin] + O=C(O)c1ccc2c(c1)nc(Nc1cccc(Cl)c1)c1ccncc12 [CX4945] (first compound 0.8 µM, partner dose 0.4 µM)",43.7,32.5,88.4,66.8,118,120,165,99.5,322,21.2
"N#CC[C@H](C1CCCC1)n1cc(-c2ncnc3[nH]ccc23)cn1 [ruxolitinib] + N.N.[Cl][Pt][Cl] [cisplatin] (first compound 1 µM, partner dose 1.6 µM)",67,80.6,82.3,128,154,43.4,35.2,98.9,59.9,54.5
"N.N.[Cl][Pt][Cl] [cisplatin] + Nc1ncn([C@H]2C[C@H](O)[C@@H](CO)O2)c(=O)n1 [decitabine] (first compound 1.6 µM, partner dose 0.1 µM)",83.5,126,115,285,274,238,207,122,177,34.6

# — the supplement of paper PMC4604168 (melanoma cell lines)
